# Data taken from the supplement of paper PMC8166895.
# Structures can show the parent of a compound that is named as a salt. The list shows a part of the results. Most entries show no effect beyond the scatter of the controls.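 Differential scanning fluorimetry gave melting temperatures in a one-replicate pilot screen of a library of approved drugs plus clinical or known-target compounds. Hits increasing melting point at least 2 °C were the strongest stabilizers, while negative shifts signify destabilization.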
# Tested on: SARS-CoV-2 main protease (Mpro, nsp5)
# Test: thermal shift ΔTm of Mpro relative to plate average Tm; higher = stronger thermal stabilization of Mpro (binding)
# Details: 10 µM; protein concentration 1 µM
row,Compound,thermal shift ΔTm of Mpro
1,CCCCCCc1ccc(O)cc1O [Hexylresorcinol],-0.00795 °C
2,CN(C)Cc1ccc(-c2nc3cccc4c3n2CCNC4=O)cc1,-0.137 °C
3,O=C(/C=C\n1cnc(-c2cc(C(F)(F)F)cc(C(F)(F)F)c2)n1)NNc1cnccn1,0.196 °C
4,CN(C)CCSSCCNC(=O)C1CCN(C(=O)CSc2ccc(Cl)cc2)CC1,-0.429 °C
5,COC(=O)[C@@H]1[C@H]2C[C@H]3c4[nH]c5ccccc5c4CCN3C[C@@H]2CC[C@@H]1O [Yohimbine HCl],-0.0423 °C
6,N#C[C@@H]1C[C@@H]2C[C@@H]2N1C(=O)[C@@H](N)C12CC3CC(CC(O)(C3)C1)C2 [Saxagliptin],-0.179 °C
7,N#C[C@@H]1C[C@@H]2C[C@@H]2N1C(=O)[C@@H](N)C12CC3CC(CC(O)(C3)C1)C2 [Saxagliptin hydrate],0.148 °C
8,CCS(=O)(=O)CCn1c([N+](=O)[O-])cnc1C [Tinidazole],0.134 °C
9,O=C1CCc2cc(OCCCCc3nnnn3C3CCCCC3)ccc2N1 [Cilostazol],0.112 °C
10,Oc1ccc(-c2nc3cc(O)cc(Br)c3o2)cc1,0.203 °C
11,CCOC(=O)c1ccc(NC(=O)O[C@H]2[C@H](OC(=O)Nc3ccc4c(c3)OCO4)[C@@H](OC(=O)Nc3ccc4c(c3)OCO4)[C@@H](OC)O[C@@H]2CO)cc1,-0.117 °C
12,CCNC(=O)C#Cc1ccc2c(C(=Nc3ccc(CN(C)C)cc3)c3ccccc3)c(O)[nH]c2c1,-0.237 °C
13,CCCCOc1cc(C(=O)NCCN(CC)CC)c2ccccc2n1 [Dibucaine],0.00139 °C
14,CCCCOc1cc(C(=O)NCCN(CC)CC)c2ccccc2n1 [Dibucaine HCl],-0.0402 °C
15,CCC(C)SSc1ncc[nH]1 (stereo not drawn),-3.15 °C
16,COc1cc(/C=C/c2ccccc2)oc(=O)c1 [Desmethoxy yangonin],0.0449 °C
17,Cc1coc2c1C(=O)C(=O)c1c-2ccc2c(C)cccc12 [Tanshinone I],-0.106 °C
18,C[C@@]12C[C@@]3(O)O[C@@H](O1)[C@]1(COC(=O)c4ccccc4)[C@H]3C[C@@]12O[C@@H]1O[C@H](CO)[C@@H](O)[C@H](O)[C@H]1O [Paeoniflorin],-0.042 °C
19,C[C@H]1CNCCc2ccc(Cl)cc21 [Lorcaserin HCl],-0.136 °C
20,Cc1ccccc1-n1c(Cn2nc(-c3cccc(O)c3)c3c(N)ncnc32)nc2cccc(C)c2c1=O,-0.124 °C
21,COc1cc(Nc2nc3ccccc3nc2NS(=O)(=O)c2ccc(NC(=O)c3ccc(C)c(OC)c3)cc2)cc(OC)c1,1.03 °C
22,CCC1=C(C)CN(C(=O)NCCc2ccc(S(=O)(=O)NC(=O)N[C@H]3CC[C@H](C)CC3)cc2)C1=O [Glimepiride],0.348 °C
23,CC(C)N1C(=O)N(c2ccccc2)CS/C1=N\C(C)(C)C [Buprofezin],-0.12 °C
24,Nc1ncnc2c1c(-c1cnc3[nH]ccc3c1)nn2C1CCCC1,-0.0425 °C
25,CO[C@H]1[C@H](OC)[C@H]2O[C@H]3[C@@H](OC)[C@H](OC)[C@@H](O[C@H]4[C@@H](OC)[C@H](OC)[C@@H](O[C@H]5[C@@H](OC)[C@H](OC)[C@@H](O[C@H]6[C@@H](OC)[C@H](OC)[C@@H](O[C@H]7[C@@H](O)[C@H](OC)[C@@H](O[C@H]8[C@@H](O)[C@H](OC)[C@@H](O[C@@H]1[C@@H](CO)O2)O[C@@H]8CO)O[C@@H]7CO)O[C@@H]6CO)O[C@@H]5CO)O[C@@H]4CO)O[C@@H]3CO [Methyl-β-cyclodextrin],0.363 °C
26,Cc1cc(C(O)=C2C(=O)C(=O)N(CCCN3CCOCC3)C2c2ccncc2)ccc1OCc1ccccc1 (stereo not drawn),0.0141 °C

# Single entries from the entries so far.
# Entry for Nc1ncnc2c1c(-c1cnc3[nH]ccc3c1)nn2C1CCCC1 under thermal shift ΔTm of Mpro: -0.0425 °C
# Entry for CO[C@H]1[C@H](OC)[C@H]2O[C@H]3[C@@H](OC)[C@H](OC)[C@@H](O[C@H]4[C@@H](OC)[C@H](OC)[C@@H](O[C@H]5[C@@H](OC)[C@H](OC)[C@@H](O[C@H]6[C@@H](OC)[C@H](OC)[C@@H](O[C@H]7[C@@H](O)[C@H](OC)[C@@H](O[C@H]8[C@@H](O)[C@H](OC)[C@@H](O[C@@H]1[C@@H](CO)O2)O[C@@H]8CO)O[C@@H]7CO)O[C@@H]6CO)O[C@@H]5CO)O[C@@H]4CO)O[C@@H]3CO [Methyl-β-cyclodextrin] under thermal shift ΔTm of Mpro: 0.363 °C
# Entry for Cc1coc2c1C(=O)C(=O)c1c-2ccc2c(C)cccc12 [Tanshinone I] under thermal shift ΔTm of Mpro: -0.106 °C

# Continuation.

row,Compound,thermal shift ΔTm of Mpro
1,COc1cc(OC)cc(-c2cc3cnc(N)nc3nc2NC(=O)NC(C)(C)C)c1,-0.106 °C
2,COc1cc(C(=O)NC2CCCNC2)cc(OC)c1OC (stereo not drawn) [Troxipide],-0.0601 °C
3,C[C@]12CC[C@@H]3c4ccc(O)cc4CC[C@H]3[C@@H]1CCC2=O [Estrone],0.0151 °C
4,Cc1cc(-n2cccc2)c(S(C)(=O)=O)cc1C(=O)N=C(N)N [Eniporide],0.352 °C
5,Nc1ncnc2c1c(-c1cccc(OCc3ccccc3)c1)cn2C1CC(CN2CCC2)C1 (stereo not drawn),-0.183 °C
6,CCCCCCCCc1ccc(CCC(N)(CO)CO)cc1 [Fingolimod (FTY720) HCl],-0.229 °C
7,CC(C)(O)c1cn(-c2ccc(-c3cccc(S(C)(=O)=O)c3)cc2)c(C(C)(C)c2ccccc2Cl)n1,-0.0917 °C
8,CCN(CC)CCOc1ccc(Nc2nc(-c3ccccc3NC(=O)CCN3CCN(C)CC3)nc3ccccc23)cc1,-0.207 °C
9,Cc1ccc(NC(=O)Nc2nnc(Sc3ncnc4cc(OCCCN5CCOCC5)ccc34)s2)cc1,0.267 °C
10,COc1cnc(NS(=O)(=O)c2ccc(N)cc2)nc1 [Sulfameter],0.0346 °C
11,O=C(O)CCn1c2c(c3ccccc31)C[C@H](NS(=O)(=O)c1ccc(F)cc1)CC2 [Ramatroban],0.0185 °C
12,Cc1c[nH]c2nc(Nc3ccc(N4CCN(C)CC4)c(F)c3)nc(-c3cccc(CC#N)c3)c12,0.266 °C
13,CS(=O)(=O)Nc1ccc(C(=O)NCc2ccc(Cl)cc2Cl)cc1,-0.131 °C
14,O=C(O)CCC(=O)Nc1ccc(S(=O)(=O)Nc2nccs2)cc1 [Succinylsulfathiazole],0.169 °C
15,O=S(=O)(Nc1ccccc1)c1ccc(NC(=S)Nc2ccccc2)cc1,0.183 °C
16,O=C(O)c1cc([O-])c([O-])c(O)c1.[Bi+3].[OH-],0.305 °C
17,CCOC(OCC)P(=O)(O)CCCNCc1ccc(Cl)c(Cl)c1,-0.0567 °C
18,Cc1cccc(CN2CCN(C(c3ccccc3)c3ccc(Cl)cc3)CC2)c1 (stereo not drawn) [Meclizine dihydrochloride],0.276 °C
19,OC1CCC(Oc2cccc3cnc(Nc4ccc5nc[nH]c5c4)nc23)CC1 (stereo not drawn),-0.0175 °C
20,COc1cc(CCC(C)=O)ccc1O [Vanillylacetone],-0.0558 °C
21,O=NN(CCCl)C(=O)NC1CCCCC1 [Lomustine],0.217 °C
22,CC1CN(S(=O)(=O)c2cccc3cnccc23)CCN1 (stereo not drawn) [Iso-H7 dihydrochloride],-0.043 °C
23,CC(C)c1cc(C(=O)N2Cc3ccc(CN4CCN(C)CC4)cc3C2)c(O)cc1O,-0.117 °C
24,COc1cc(Nc2ncc(F)c(Nc3ccc4c(n3)N(COP(=O)(O)O)C(=O)C(C)(C)O4)n2)cc(OC)c1OC [R788 Disodium],-0.0133 °C
25,COc1cc(Nc2ncc(F)c(Nc3ccc4c(n3)N(COP(=O)(O)O)C(=O)C(C)(C)O4)n2)cc(OC)c1OC [Fostamatinib (R788)],0.04 °C
26,CCOc1ccc(-c2nc(-c3cccc4c3CCC4NCCO)no2)cc1OCC (stereo not drawn),0.0161 °C

row,Compound,thermal shift ΔTm of Mpro
1,CC1(C)S[C@@H]2[C@H](NC(=O)[C@H](NC(=O)N3CCN(S(C)(=O)=O)C3=O)c3ccccc3)C(=O)N2[C@H]1C(=O)O [Mezlocillin Sodium],-0.0386 °C
2,Cn1c(=O)cc(N2CCC[C@@H](N)C2)n(Cc2ccccc2C#N)c1=O [Alogliptin Benzoate],0.169 °C
3,Cn1c(=O)cc(N2CCC[C@@H](N)C2)n(Cc2ccccc2C#N)c1=O [Alogliptin],-0.107 °C
4,CCCCCCCN(CC)CCCC(O)c1ccc(NS(C)(=O)=O)cc1 (stereo not drawn) [Ibutilide Fumarate],0.175 °C
5,Cc1nnc(C(C)C)n1C1C[C@H]2CC[C@@H](C1)N2CC[C@H](NC(=O)C1CCC(F)(F)CC1)c1ccccc1 (stereo in doubt) [Maraviroc],0.155 °C
6,c1ccc2[nH]c(-c3cscn3)nc2c1 [Thiabendazole],-0.103 °C
7,Cn1cc(-c2ccc3nnc(C(F)(F)c4ccc5ncccc5c4)n3n2)cn1,-0.15 °C
8,OC[C@@H](O)[C@@H](O[C@@H]1O[C@H](CO)[C@H](O)[C@H](O)[C@H]1O)[C@H](O)[C@@H](O)CO [Lactitol monohydrate],0.163 °C
9,CCC(CC)CC1(C(=O)Nc2ccccc2SC(=O)C(C)C)CCCCC1,-0.102 °C
10,CN1[C@@H](CC(=O)c2ccccc2)CCC[C@H]1C[C@H](O)c1ccccc1 [Lobeline hydrochloride],0.343 °C
11,COc1ccc(CNC(=O)c2cc(-c3cncc(C)c3)ncc2-c2nccs2)nc1OC,-0.0298 °C
12,COC(=O)c1cc(OC)c2c(c1-c1c(CO)cc(OC)c3c1OCO3)OCO2 [Bicyclol],0.0041 °C
13,CNC(=O)Nc1ccc(-c2nc(N3CC4CCC(C3)O4)c3cnn(C4CCC5(CC4)OCCO5)c3n2)cc1,-0.00586 °C
14,COC1=C2C[C@@H](C)C[C@H](OC)[C@H](O)[C@@H](C)/C=C(\C)[C@H](OC(N)=O)[C@@H](OC)/C=C\C=C(/C)C(=O)NC(=CC1=O)C2=O [Geldanamycin],-0.209 °C
15,CCCCNc1ncc2c(-c3ccc(CN4CCN(C)CC4)cc3)cn([C@H]3CC[C@H](O)CC3)c2n1,0.0312 °C
16,CN1CC2c3ccccc3Oc3ccc(Cl)cc3C2C1 (stereo not drawn) [Asenapine],0.138 °C
17,CN1CC2c3ccccc3Oc3ccc(Cl)cc3C2C1 (stereo not drawn) [Asenapine Maleate],-0.0393 °C
18,Oc1cc(CN2CCOCC2)c(O)cc1CN1CCOCC1,-0.0562 °C
19,CCOC(=O)[C@H](CCc1ccccc1)N[C@@H](C)C(=O)N1CCC[C@H]1C(=O)O [Enalapril Maleate],0.0813 °C
20,CNC(=O)Oc1ccccc1OC(C)C [Propoxur],-0.0409 °C
21,CNC(=O)[C@H](Cc1ccccc1)NC(=O)[C@H](CC(C)C)[C@H](CSc1cccs1)C(=O)NO [Batimastat (BB-94)],0.0709 °C
22,COc1cc2ncnc(Nc3ccc(O)cc3)c2cc1OC,0.0906 °C
23,O=C(O)c1cn(C2CC2)c2cc(Cl)c(F)cc2c1=O [Ciprofloxacin EP IMpurity A],0.0953 °C
24,O=C(O)c1ccccc1C(=O)Nc1ccc(-c2ccccc2)cc1 [Kartogenin],-0.211 °C
25,O=C(NC(O)C(Cl)(Cl)Cl)NC(O)C(Cl)(Cl)Cl (stereo not drawn),0.241 °C
26,C=CC(=O)N1CCC[C@@H](n2nc(-c3ccc(Oc4ccccc4)cc3)c3c(N)ncnc32)C1,-0.29 °C
